These are yes or no findings as the source states them, for the method shown. Binding seen in cells or lysates may run through a third protein. Some binding calls cover weakened binding; strength is not graded here.
Biological target: TNFR2 (UniProt P20333)
Experiment: co-IP; cells lysed in IP lysis buffer, pre-cleared with Protein G-agarose, primary antibody 3 h at 4 °C, Protein G-agarose overnight, washed three times with TBS, western blot; cells and precipitating antibody for this pair not told

Chains of the proteins cited; added tags and fusions are not shown. Residues count along the entry.
UniProt P20333, residues 23-461: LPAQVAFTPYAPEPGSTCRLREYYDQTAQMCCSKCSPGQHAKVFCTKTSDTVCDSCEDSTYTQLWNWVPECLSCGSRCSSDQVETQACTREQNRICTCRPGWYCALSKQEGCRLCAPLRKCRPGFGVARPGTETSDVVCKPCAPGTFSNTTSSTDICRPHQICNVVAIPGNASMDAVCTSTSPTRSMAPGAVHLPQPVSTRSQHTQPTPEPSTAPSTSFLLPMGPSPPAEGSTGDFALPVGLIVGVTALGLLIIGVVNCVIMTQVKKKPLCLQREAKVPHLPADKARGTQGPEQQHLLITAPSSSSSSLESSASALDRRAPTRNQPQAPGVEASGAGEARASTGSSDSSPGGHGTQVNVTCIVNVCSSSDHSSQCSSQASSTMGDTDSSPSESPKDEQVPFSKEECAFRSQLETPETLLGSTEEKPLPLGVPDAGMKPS
UniProt Q9P206: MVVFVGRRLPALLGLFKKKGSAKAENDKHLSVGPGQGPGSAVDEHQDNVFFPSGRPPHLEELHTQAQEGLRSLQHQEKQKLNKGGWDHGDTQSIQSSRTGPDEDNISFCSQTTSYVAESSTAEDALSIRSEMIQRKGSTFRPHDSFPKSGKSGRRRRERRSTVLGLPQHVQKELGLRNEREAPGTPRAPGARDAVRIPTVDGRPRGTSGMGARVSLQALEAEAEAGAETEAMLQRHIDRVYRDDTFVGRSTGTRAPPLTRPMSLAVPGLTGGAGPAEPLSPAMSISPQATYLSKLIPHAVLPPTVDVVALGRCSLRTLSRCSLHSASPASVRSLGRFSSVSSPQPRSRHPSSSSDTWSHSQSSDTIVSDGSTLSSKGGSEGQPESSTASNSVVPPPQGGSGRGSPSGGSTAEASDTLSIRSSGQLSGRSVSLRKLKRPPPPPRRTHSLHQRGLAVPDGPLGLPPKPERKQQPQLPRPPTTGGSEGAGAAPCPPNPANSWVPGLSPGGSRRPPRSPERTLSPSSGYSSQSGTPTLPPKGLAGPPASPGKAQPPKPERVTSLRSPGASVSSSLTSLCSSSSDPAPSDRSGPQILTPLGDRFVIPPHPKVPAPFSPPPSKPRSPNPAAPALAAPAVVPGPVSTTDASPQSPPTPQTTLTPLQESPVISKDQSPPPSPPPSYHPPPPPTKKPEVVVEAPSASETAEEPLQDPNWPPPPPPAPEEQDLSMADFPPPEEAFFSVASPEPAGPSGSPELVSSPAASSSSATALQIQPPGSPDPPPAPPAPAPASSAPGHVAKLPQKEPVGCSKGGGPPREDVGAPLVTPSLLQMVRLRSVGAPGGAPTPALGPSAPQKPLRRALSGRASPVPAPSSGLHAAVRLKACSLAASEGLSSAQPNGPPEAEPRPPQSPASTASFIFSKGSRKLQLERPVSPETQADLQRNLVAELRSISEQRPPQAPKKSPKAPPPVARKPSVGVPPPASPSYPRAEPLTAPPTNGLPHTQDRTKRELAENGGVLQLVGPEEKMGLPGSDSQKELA

For KIAA1522 (from UniProt Q9P206 1-1035), which binding is on record?
The binding was “binds”.

From article PMC7450600
